Results are given in words; binding and its absence hold for the method and conditions named. Some entries that bind do so weakly or less than the wild type.
Experiments:
[1] = target: FLAG-epitope tagged recombinant ISWI (Drosophila melanogaster) (UniProt Q24368); assay: pull-down; as the pull-down without DNA, but with activated DNA (Trevigen) in the binding reaction: PARP is stimulated, PARP self-PARylates and ISWI is PARylated; 15 min at 25 °C; Anti-FLAG M2 affinity gel; both purified
[2] = target: FLAG-epitope tagged recombinant ISWI (Drosophila melanogaster) (UniProt Q24368); assay: pull-down; 8 nmol FLAG-ISWI incubated with 8 nmol purified PARP-1 in 1X PARP cocktail, 100 mM Tris-HCl pH 8, 1 mM MgCl2, 1 mM DTT, without activated DNA, 15 min at 25 °C; FLAG-ISWI pulled down with Anti-FLAG M2 affinity gel; Western blot with aISWI and aPARP; both purified

The chains behind the UniProt entries cited, without tags or fusion partners.
UniProt Q24368: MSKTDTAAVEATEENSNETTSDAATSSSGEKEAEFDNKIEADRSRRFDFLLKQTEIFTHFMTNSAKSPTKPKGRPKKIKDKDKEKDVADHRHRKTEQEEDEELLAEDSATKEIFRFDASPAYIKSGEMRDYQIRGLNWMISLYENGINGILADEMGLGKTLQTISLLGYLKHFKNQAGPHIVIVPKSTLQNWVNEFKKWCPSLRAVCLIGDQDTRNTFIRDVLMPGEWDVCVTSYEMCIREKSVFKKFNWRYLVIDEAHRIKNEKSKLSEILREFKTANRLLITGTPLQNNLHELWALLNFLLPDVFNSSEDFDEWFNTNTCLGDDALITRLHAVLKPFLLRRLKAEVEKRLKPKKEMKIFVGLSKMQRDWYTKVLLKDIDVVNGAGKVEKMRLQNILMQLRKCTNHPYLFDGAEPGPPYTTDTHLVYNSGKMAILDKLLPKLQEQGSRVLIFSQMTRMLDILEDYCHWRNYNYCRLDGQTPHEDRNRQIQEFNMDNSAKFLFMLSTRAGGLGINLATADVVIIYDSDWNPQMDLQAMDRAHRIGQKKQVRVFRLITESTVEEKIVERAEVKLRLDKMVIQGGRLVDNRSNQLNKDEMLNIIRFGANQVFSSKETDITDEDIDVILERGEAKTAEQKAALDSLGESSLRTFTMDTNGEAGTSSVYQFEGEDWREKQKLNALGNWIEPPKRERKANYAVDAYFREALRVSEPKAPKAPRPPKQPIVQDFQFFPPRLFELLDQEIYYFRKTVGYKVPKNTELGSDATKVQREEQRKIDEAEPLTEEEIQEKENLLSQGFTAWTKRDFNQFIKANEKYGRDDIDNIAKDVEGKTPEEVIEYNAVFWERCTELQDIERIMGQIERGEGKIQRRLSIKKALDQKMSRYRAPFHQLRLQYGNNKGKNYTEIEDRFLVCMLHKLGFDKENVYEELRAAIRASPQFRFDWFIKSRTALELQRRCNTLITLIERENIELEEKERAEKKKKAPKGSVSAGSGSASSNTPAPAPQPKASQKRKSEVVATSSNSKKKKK
UniProt P09874: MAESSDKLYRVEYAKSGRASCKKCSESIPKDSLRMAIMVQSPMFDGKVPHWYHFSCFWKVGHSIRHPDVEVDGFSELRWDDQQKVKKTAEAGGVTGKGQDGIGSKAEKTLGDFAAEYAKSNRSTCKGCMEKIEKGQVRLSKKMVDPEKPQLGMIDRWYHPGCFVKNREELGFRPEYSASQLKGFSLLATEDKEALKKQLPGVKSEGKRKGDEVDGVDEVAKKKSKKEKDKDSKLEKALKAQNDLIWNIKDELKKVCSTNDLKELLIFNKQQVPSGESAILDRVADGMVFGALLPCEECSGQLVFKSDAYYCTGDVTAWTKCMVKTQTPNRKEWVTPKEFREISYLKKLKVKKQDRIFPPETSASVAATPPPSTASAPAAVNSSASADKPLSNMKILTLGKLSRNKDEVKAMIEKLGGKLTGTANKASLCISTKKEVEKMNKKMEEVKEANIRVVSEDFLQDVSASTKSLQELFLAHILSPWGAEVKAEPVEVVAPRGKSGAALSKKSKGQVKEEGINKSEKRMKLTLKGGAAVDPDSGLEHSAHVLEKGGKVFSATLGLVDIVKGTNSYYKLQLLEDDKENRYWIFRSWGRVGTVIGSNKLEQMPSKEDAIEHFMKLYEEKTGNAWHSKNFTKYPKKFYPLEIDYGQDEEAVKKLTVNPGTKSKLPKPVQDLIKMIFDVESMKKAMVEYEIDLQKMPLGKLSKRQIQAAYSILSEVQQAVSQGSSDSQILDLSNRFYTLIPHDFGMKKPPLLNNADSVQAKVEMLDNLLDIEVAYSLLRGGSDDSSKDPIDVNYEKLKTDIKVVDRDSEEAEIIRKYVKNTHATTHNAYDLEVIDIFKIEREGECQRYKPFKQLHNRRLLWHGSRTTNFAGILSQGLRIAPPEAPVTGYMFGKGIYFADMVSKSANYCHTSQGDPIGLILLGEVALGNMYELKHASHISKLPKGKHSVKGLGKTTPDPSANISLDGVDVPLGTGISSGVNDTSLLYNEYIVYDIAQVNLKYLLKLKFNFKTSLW

Substance: purified PARP-1 (Trevigen) (from UniProt P09874 1-1014) (enzyme)
- binding [1]: binds weakly
- binding [2]: binds

Reference: PMC2567001
